The reference is the same well before dosing, and untreated signal decays as well.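 Cells used are triple-negative breast cancer lines, either basal-like or mesenchymal-like, grown in the absence of fibroblasts. Lower red signal means mitochondrial integrity is lost, a surrogate for apoptosis.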
Experiments:
HCC1143 = experiment: relative JC-1 red fluorescence (viability) vs pre-drug, monoculture (fraction); higher = more viable cancer cells; conditions: coculture fibroblast: none (monoculture)
Experimental: (§1)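 JC-1 labelled TNBC cells grown in monoculture (density kept equal with unlabelled cancer cells) in 384-well plates in FluoroBrite medium, treated with one of 42 anticancer drugs at 0.1, 1, 10 or 100 uM. JC-1 red fluorescence (mitochondrial integrity, surrogate of apoptotic death) was read by plate reader every 8 h for 72 h. Values are normalised to each well's pre-drug value, with background from alamethicin. The stock of one drug was tenfold lower, so its dose labels may be too high. Monoculture values are repeated alongside each fibroblast plate and are averaged here.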

Hs578T = experiment: as above; conditions: coculture fibroblast: none (monoculture)
Experimental: as §1

O=C(O)CCCc1ccc(N(CCCl)CCCl)cc1 [Chlorambucil]
relative JC-1 red fluorescence
Conditions	8 h	16 h	24 h	32 h	40 h	48 h	56 h	64 h	72 h
HCC1143, 0.1 µM	0.9	0.738	0.697	0.672	0.747	0.726	0.689	0.638	0.608
HCC1143, 1 µM	0.892	0.811	0.748	0.704	0.668	0.642	0.613	0.586	0.57
HCC1143, 10 µM	0.8729	0.77	0.708	0.669	0.625	0.598	0.566	0.5433	0.52611
HCC1143, 100 µM	0.913	0.831	0.761	0.706	0.661	0.604	0.555	0.522	0.5
Hs578T, 0.1 µM	0.817	0.711	0.633	0.549	0.49	0.463	0.44	0.437	0.427
Hs578T, 1 µM	0.8511	0.773	0.689	0.6243	0.582	0.559	0.526	0.515	0.511
Hs578T, 10 µM	0.8762	0.71757	0.734	0.661	0.627	0.623	0.606	0.617	0.621
Hs578T, 100 µM	0.83	0.7128	0.6008	0.524	0.462	0.4226	0.379	0.3635	0.3396

Reference: the supplement of paper PMC6078165
